Measured values taken from patent US20030180396A1, “Method of effecting phosphorylation in eucaryotic cells using thiamine triphosphate” (INSTITUT PASTEUR, priority 1999, published 2003).

Test system: TTP-dependent kinase(s) (TTP-kinase, TTP-43K-kinase)
Test: TTP-dependent phosphorylation of 43K rapsyn by endogenous kinase(s) in nAChR-rich postsynaptic membranes
Type: biochemical, Torpedo marmorata
Conditions: 200 nM
Experimental: nAChR-rich postsynaptic membranes (nAChR-membranes) were prepared from electric organs excised from freshly killed Torpedo marmorata (T.m.) (Biologie Marine, Arcachon) (3, 16).
[γ-^32P]-TTP (^32P-TTP) was synthesized (27). nAChR-membranes were phosphorylated with (7-8000 Ci/mol) ^32P-TTP or ^32P-ATP in 50 mM Tris-HCl pH 7.5, 5-15 mM MgCl2, 0.08% CHAPS, inhibitors of proteases at 4°-20° C. for 60-90 minutes. […] Coomassie blue staining was performed when necessary. Where specified, nAChR-membranes were treated with 5-20 mM diethylpyrocarbonate (DEPC.) (28) in 50 mM Na phosphate buffer pH 6.0 and 7.4 (20 min, 16° C.), prior to incubation with ^32P-TTP.
A purified extract containing the kinase responsible for the TTP dependent phosphorylation of histidine residues on rapsyn, is preincubated with increasing concentration of products inhibiting the enzymatic activity of said kinase (FIG. 3A).

With CN[C@@H]1C[C@H]2O[C@@](C)([C@@H]1OC)n1c3ccccc3c3c4c(c5c6ccccc6n2c5c31)C(=O)NC4 [staurosporine] the “% inhibition of TTP-kinase” value was 33±3%.
